For some of these results: A negative result means that nothing was seen under these conditions. For some of these results: Construct, isoform or probe ends are uncertain for at least one entry. For some of these results: Results from cells or extracts need not show a direct contact.
What was measured:
MUC1 on A549 cells = MUC1 on A549 cells (UniProt P15941); assay: flow cytometry, cell binding; conditions: A549 cells, Hanks buffer (binding buffer), 37 C, 30 min, 200 ul, aptamer DNA heated 95 C 5 min then cooled to 0 C (stated for SELEX pool and Dox loading), pH not stated, protein on the cell surface, single-stranded DNA
MUC1 on MCF-7 cells = MUC1 on MCF-7 cells (UniProt P15941); assay: flow cytometry, cell binding; conditions: MCF-7 cells; Hanks buffer (binding buffer), 37 C, 30 min, 200 ul; aptamer DNA heated 95 C 5 min then cooled to 0 C (stated for SELEX pool and Dox loading); pH not stated; protein on the cell surface; label: 5'-FITC; single-stranded DNA
[1] = target: Bovine serum albumin (bovine) (UniProt P02769); assay: flow cytometry, bead binding; conditions: relatively weak signal, similar to random DNA; Hanks buffer (binding buffer), 37 C, 30 min, 200 ul; aptamer DNA heated 95 C 5 min then cooled to 0 C (stated for SELEX pool and Dox loading); pH not stated; commercial protein; protein details: EDC-coupled to magnetic beads; label: 5'-FITC; single-stranded DNA

Chains of the proteins cited; added tags and fusions are not shown. Lines headed by an entry give the natural chain unless they say otherwise; changes in a name come on top. Residues count along the entry.
UniProt P15941: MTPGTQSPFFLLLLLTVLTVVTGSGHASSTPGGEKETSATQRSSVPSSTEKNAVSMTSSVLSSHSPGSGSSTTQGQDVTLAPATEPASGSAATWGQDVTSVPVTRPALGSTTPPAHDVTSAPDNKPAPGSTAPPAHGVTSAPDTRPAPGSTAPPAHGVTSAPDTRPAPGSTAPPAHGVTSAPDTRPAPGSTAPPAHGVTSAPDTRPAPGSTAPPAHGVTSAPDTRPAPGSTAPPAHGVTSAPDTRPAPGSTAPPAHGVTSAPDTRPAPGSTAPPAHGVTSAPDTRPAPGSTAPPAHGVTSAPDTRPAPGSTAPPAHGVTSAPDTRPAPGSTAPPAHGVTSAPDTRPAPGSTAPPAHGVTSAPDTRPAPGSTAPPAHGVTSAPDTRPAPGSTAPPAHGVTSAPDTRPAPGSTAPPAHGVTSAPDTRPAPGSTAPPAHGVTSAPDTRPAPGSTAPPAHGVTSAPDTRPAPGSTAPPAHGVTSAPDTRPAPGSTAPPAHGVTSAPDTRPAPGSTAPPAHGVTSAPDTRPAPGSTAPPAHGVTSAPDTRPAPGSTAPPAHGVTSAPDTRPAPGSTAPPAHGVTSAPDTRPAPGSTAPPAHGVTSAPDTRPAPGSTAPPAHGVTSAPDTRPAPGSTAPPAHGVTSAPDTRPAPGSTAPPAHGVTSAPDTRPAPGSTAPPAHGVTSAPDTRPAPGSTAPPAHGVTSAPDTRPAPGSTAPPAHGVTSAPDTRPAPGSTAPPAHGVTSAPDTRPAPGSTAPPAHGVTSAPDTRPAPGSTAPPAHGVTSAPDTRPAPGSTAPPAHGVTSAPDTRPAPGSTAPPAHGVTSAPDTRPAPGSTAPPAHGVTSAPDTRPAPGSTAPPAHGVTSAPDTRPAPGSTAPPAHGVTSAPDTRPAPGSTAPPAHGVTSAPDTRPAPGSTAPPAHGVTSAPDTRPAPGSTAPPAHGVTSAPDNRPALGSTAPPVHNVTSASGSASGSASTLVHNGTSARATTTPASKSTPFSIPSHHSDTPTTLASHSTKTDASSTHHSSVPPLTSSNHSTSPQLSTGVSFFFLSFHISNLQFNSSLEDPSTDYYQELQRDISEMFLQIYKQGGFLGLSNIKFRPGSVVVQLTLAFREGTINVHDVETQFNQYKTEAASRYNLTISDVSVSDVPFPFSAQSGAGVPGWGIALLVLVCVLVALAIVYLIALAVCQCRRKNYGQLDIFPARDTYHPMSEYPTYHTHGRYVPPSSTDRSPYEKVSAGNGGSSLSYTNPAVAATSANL
UniProt P02769, 25-607: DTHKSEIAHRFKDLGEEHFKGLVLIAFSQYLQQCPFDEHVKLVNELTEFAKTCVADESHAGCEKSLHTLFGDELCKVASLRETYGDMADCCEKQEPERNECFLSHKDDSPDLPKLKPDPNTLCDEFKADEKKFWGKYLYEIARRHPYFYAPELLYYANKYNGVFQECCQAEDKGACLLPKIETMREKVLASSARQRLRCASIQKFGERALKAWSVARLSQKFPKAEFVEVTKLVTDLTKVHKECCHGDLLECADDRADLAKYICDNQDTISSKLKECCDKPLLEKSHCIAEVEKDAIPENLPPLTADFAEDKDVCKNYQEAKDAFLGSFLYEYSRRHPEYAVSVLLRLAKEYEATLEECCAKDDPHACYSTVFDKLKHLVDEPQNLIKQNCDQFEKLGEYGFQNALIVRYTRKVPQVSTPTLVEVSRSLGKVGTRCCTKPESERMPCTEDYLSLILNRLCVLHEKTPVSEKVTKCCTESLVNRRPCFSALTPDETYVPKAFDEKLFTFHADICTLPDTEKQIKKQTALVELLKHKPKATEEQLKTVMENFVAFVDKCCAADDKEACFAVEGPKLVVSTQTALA

Sequence | binding result (MUC1 on A549 cells; doxorubicin-loaded, similar to MA3 alone, doxorubicin intercalated (non-covalent), label: FITC) | binding result (MUC1 on A549 cells; significantly reduced by MUC1 siRNA, not by control siRNA, MUC1-negative HepG2 and L02 similar to random DNA, label: 5'-FITC) | binding result (MUC1 on MCF-7 cells) | binding result [1]
AACCGCCCAAATCCCTAAGAGTCGGACTGCAACCTATGCTATCGTTGATGTCTGTCCAAGCAACACAGACACACTACACACGCACA [MA3-doxorubicin complex (Apt-Dox)] | binds | – | – | –
AACCGCCCAAATCCCTAAGAGTCGGACTGCAACCTATGCTATCGTTGATGTCTGTCCAAGCAACACAGACACACTACACACGCACA [MA3] | – | binds | binds | no binding

Source: paper PMC3284512
